No constants are given. Whether binding was seen depends on the method and setting. Binding seen in cells or lysates may run through a third protein. For some of these results: Binding can be weak; no strength is given. For some of these results: Sequences can lack the tags named with a protein.

Sequences of proteins named here, by UniProt entry; tags and fusion partners are left off.
UniProt P10275: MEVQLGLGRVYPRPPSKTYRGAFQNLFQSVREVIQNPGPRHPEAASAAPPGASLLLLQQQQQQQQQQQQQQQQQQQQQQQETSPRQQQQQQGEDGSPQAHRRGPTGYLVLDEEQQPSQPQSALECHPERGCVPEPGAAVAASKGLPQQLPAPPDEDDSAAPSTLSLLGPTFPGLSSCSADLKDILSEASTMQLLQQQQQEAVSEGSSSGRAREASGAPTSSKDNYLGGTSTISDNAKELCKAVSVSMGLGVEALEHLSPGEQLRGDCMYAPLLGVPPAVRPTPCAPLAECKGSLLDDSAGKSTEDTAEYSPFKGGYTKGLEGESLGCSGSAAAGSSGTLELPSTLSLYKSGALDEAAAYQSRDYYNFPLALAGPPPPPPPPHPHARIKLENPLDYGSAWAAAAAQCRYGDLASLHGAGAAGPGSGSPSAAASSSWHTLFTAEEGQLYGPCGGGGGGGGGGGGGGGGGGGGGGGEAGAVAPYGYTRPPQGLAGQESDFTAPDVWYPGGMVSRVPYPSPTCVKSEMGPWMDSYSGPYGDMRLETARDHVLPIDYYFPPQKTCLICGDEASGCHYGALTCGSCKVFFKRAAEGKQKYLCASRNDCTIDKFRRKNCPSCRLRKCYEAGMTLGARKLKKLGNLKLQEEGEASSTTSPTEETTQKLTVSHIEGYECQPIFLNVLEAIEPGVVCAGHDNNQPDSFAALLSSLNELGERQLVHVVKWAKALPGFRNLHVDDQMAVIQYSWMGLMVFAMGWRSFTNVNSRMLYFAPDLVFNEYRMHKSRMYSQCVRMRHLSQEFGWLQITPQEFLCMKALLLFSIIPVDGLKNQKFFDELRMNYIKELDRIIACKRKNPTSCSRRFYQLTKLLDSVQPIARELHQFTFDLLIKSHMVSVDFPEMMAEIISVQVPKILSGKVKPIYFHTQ

The target of test [1] is endogenous ERG in VCaP cells (TMPRSS2:ERG truncated variant, Δ32) (human (endogenous in VCaP)) (UniProt P11308). The test can be described thus: co-IP; VCaP cells, endogenous proteins; ERG and EZH2 specific antibodies and control IgG; RIPA lysates.
The target in test [2] is Myc-EZH2-1-340 (human). As to the kind of experiment: co-IP; PC3 cells transiently transfected with truncated Myc-tagged EZH2 constructs along with the Ha-ERG plasmid.
The target of test [3] is Myc-EZH2-ΔCXC (human). The test is described as above.
Test [4] has as its target Myc-EZH2-ΔSET (human). The description is as above.

As for “AR, endogenous in VCaP cells (from UniProt P10275 1-920)”, in test [1], the binding result was “binds”.

B1: HA-tagged ERG (pCEFL-ha-ERG) (protein, UniProt P11308 1-479)
chain: MASTIKEALSVVSEDQSLFECAYGTPHLAKTEMTASSSSDYGQTSKMSPRVPQQDWLSQPPARVTIKMECNPSQVNGSRNSPDECSVAKGGKMVGSPDTVGMNYGSYMEEKHMPPPNMTTNERRVIVPADPTLWSTDHVRQWLEWAVKEYGLPDVNILLFQNIDGKELCKMTKDDFQRLTPSYNADILLSHLHYLRETPLPHLTSDDVDKALQNSPRLMHARNTGGAAFIFPNTSVYPEATQRITTRPDLPYEPPRRSAWTGHGHPTPQSKAAQPSPSTVPKTEDQRPQLDPYQILGPTSSRLANPGSGQIQLWQFLLELLSDSSNSSCITWEGTNGEFKMTDPDEVARRWGERKSKPNMNYDKLSRALRYYYDKNIMTKVHGKRYAYKFDFHGIAQALQPHPPESSLYKYPSDLPYMGSYHAHPQKMNFVAPHPPALPVTSSSFFAAPNPYWNSPTGGIYPNTRLPTSHMPSHLGTYY
Turning to B1, the binding entry in test [2] is reported as “no binding”; in test [3] it was “binds”; in test [4], “binds”.

The record behind these values is article PMC8260656.
